From a melanoma drug combination screen (doi:10.1371/journal.pone.0140310); values rounded.

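The test systems are human melanoma cell lines, treated with a pair of drugs for 72 h and then stained and imaged. Each value is the cleaved-PARP-positive fraction of nuclei relative to DMSO-treated wells, in %, so that 100 equals the control and higher values mean more apoptosis. Every drug was used at one fixed concentration, the higher of two screened. The file gives one value for each pair and line, without errors, so small differences may be noise. Basal and induced levels differ widely between cell lines.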 An unselected part of the screen is shown. An entry leaves out what has no value listed here.

Compounds and concentrations:
PD173074: CCN(CC)CCCCNc1ncc2cc(-c3cc(OC)cc(OC)c3)c(NC(=O)NC(C)(C)C)nc2n1 at 0.5 µM
fludarabine: Nc1nc(F)nc2c1ncn2[C@@H]1O[C@H](CO)[C@@H](O)[C@@H]1O at 1 µM
veliparib: C[C@]1(c2nc3c(C(N)=O)cccc3[nH]2)CCCN1 at 7 µM
GSK0660: COC(=O)c1sccc1S(=O)(=O)Nc1ccc(Nc2ccccc2)cc1OC at 5 µM
docetaxel: CC(=O)O[C@@]12CO[C@@H]1C[C@H](O)[C@@]1(C)C(=O)[C@H](O)C3=C(C)[C@@H](OC(=O)[C@H](O)[C@@H](NC(=O)OC(C)(C)C)c4ccccc4)C[C@@](O)([C@@H](OC(=O)c4ccccc4)[C@H]21)C3(C)C at 0.0005 µM
erlotinib: C#Cc1cccc(Nc2ncnc3cc(OCCOC)c(OCCOC)cc23)c1 at 4 µM
nilutamide: CC1(C)NC(=O)N(c2ccc([N+](=O)[O-])c(C(F)(F)F)c2)C1=O at 5 µM
PLX4720: CCCS(=O)(=O)Nc1ccc(F)c(C(=O)c2c[nH]c3ncc(Cl)cc23)c1F at 0.4 µM
FH535: Cc1cc([N+](=O)[O-])ccc1NS(=O)(=O)c1cc(Cl)ccc1Cl at 5 µM

- veliparib + docetaxel | COLO 829: 924; SK-MEL-5: 1020; WM1745: 211; RPMI-7951: 122; A375: 160; SK-MEL-2: 1450; A2058: 3020
- PD173074 + nilutamide | COLO 829: 44.7; SK-MEL-5: 89.5; WM1745: 83.0; RPMI-7951: 22.8; A375: 53.9; SK-MEL-2: 61.3; A2058: 121
- fludarabine + veliparib | COLO 829: 111; SK-MEL-5: 5030; WM1745: 116; RPMI-7951: 77.3; A375: 441; SK-MEL-2: 1160; A2058: 161
- nilutamide + erlotinib | COLO 829: 40.2; SK-MEL-5: 363; WM1745: 156; RPMI-7951: 51.6; SK-MEL-2: 54.9; A2058: 174
- veliparib + FH535 | COLO 829: 288; SK-MEL-5: 221; WM1745: 113; RPMI-7951: 77.3; A375: 98.2; SK-MEL-2: 87.2; A2058: 72.9
- erlotinib + veliparib | COLO 829: 109; SK-MEL-5: 408; WM1745: 206; RPMI-7951: 299; A375: 46.7; SK-MEL-2: 130; A2058: 278
- nilutamide + GSK0660 | COLO 829: 44.4; SK-MEL-5: 150; WM1745: 126; RPMI-7951: 153; A375: 56.4; SK-MEL-2: 77.8; A2058: 157
- veliparib + PLX4720 | COLO 829: 142; SK-MEL-5: 151; WM1745: 121; RPMI-7951: 80.8; A375: 138; SK-MEL-2: 222; A2058: 107
- GSK0660 + erlotinib | COLO 829: 99.9; SK-MEL-5: 213; WM1745: 150; RPMI-7951: 223; A375: 85.9; SK-MEL-2: 117; A2058: 224
- nilutamide + fludarabine | COLO 829: 53.2; SK-MEL-5: 1740; WM1745: 92.3; RPMI-7951: 171; SK-MEL-2: 3980; A2058: 110
- FH535 + PLX4720 | COLO 829: 107; SK-MEL-5: 118; RPMI-7951: 78.7; A375: 343; SK-MEL-2: 43.3; A2058: 62.0
- FH535 + GSK0660 | COLO 829: 152; SK-MEL-5: 115; WM1745: 124; RPMI-7951: 126; A375: 117; SK-MEL-2: 73.1; A2058: 174
- veliparib + nilutamide | COLO 829: 62.1; SK-MEL-5: 308; WM1745: 131; RPMI-7951: 127; SK-MEL-2: 105; A2058: 85.8
- PLX4720 + docetaxel | COLO 829: 258; SK-MEL-5: 627; WM1745: 199; RPMI-7951: 379; A375: 114; SK-MEL-2: 1000; A2058: 1690
- docetaxel + PD173074 | COLO 829: 161; SK-MEL-5: 165; RPMI-7951: 123; A375: 238; SK-MEL-2: 1080; A2058: 2410
- FH535 + fludarabine | COLO 829: 90.9; SK-MEL-5: 3860; RPMI-7951: 294; A375: 322; SK-MEL-2: 1280; A2058: 50.9
- erlotinib + docetaxel | COLO 829: 470; SK-MEL-5: 3020; WM1745: 350; RPMI-7951: 1250; A375: 393; SK-MEL-2: 2150; A2058: 2000
- PD173074 + erlotinib | COLO 829: 72.6; SK-MEL-5: 100; WM1745: 173; RPMI-7951: 99.0; A375: 13.9; SK-MEL-2: 92.9; A2058: 205
- fludarabine + GSK0660 | COLO 829: 116; SK-MEL-5: 1860; RPMI-7951: 141; A375: 436; SK-MEL-2: 2730; A2058: 73.4
- PD173074 + fludarabine | COLO 829: 76.4; SK-MEL-5: 1230; RPMI-7951: 212; A375: 476; SK-MEL-2: 1050; A2058: 126
- erlotinib + FH535 | COLO 829: 92.3; SK-MEL-5: 162; WM1745: 154; RPMI-7951: 115; A375: 70.1; SK-MEL-2: 57.8; A2058: 220
- GSK0660 + docetaxel | COLO 829: 267; SK-MEL-5: 2110; RPMI-7951: 255; A375: 150; SK-MEL-2: 912; A2058: 1440
- veliparib + GSK0660 | COLO 829: 153; SK-MEL-5: 130; WM1745: 86.2; RPMI-7951: 73.3; A375: 136; SK-MEL-2: 69.3; A2058: 103
- FH535 + PD173074 | COLO 829: 155; SK-MEL-5: 137; WM1745: 118; RPMI-7951: 91.0; A375: 127; SK-MEL-2: 101; A2058: 97.3
- PD173074 + veliparib | COLO 829: 74.3; SK-MEL-5: 123; WM1745: 212; RPMI-7951: 131; A375: 129; SK-MEL-2: 269; A2058: 116
- PLX4720 + GSK0660 | COLO 829: 238; SK-MEL-5: 82.8; RPMI-7951: 94.2; A375: 169; SK-MEL-2: 152; A2058: 142
- nilutamide + PLX4720 | COLO 829: 69.0; SK-MEL-5: 175; WM1745: 92.1; RPMI-7951: 133; SK-MEL-2: 120; A2058: 135
- fludarabine + erlotinib | COLO 829: 184; SK-MEL-5: 2360; WM1745: 136; RPMI-7951: 90.8; A375: 319; SK-MEL-2: 1110; A2058: 150
- PD173074 + PLX4720 | COLO 829: 87.1; SK-MEL-5: 177; RPMI-7951: 98.0; A375: 208; SK-MEL-2: 134; A2058: 97.8
- GSK0660 + PD173074 | COLO 829: 54.2; SK-MEL-5: 103; WM1745: 113; RPMI-7951: 115; A375: 67.7; SK-MEL-2: 55.2; A2058: 102
- FH535 + docetaxel | COLO 829: 58.9; SK-MEL-5: 438; RPMI-7951: 231; A375: 342; SK-MEL-2: 1080; A2058: 3900
- nilutamide + docetaxel | COLO 829: 385; SK-MEL-5: 1390; WM1745: 237; RPMI-7951: 458; SK-MEL-2: 1350; A2058: 7100
- fludarabine + docetaxel | COLO 829: 379; SK-MEL-5: 2030; WM1745: 244; RPMI-7951: 348; A375: 579; SK-MEL-2: 2390; A2058: 2480

For reference, 2 entries once more:

{"combination": "FH535 + GSK0660", "COLO 829": 152, "SK-MEL-5": 115, "WM1745": 124, "RPMI-7951": 126, "A375": 117, "SK-MEL-2": 73.1, "A2058": 174}
{"combination": "nilutamide + erlotinib", "COLO 829": 40.2, "SK-MEL-5": 363, "WM1745": 156, "RPMI-7951": 51.6, "SK-MEL-2": 54.9, "A2058": 174}